According to patent publication US8987312B2, “Alpha-keto heterocycles as FAAH inhibitors” (The Scripps Research Institute, priority 2008, dated 2015):
Some of these results come from one statement about several compounds together.

Molecular target: T1, KIAA1363 (Mus musculus, UniProt Q8BLF1)
T1 construct: with FP-Rh in brain and heart membrane proteome; from tissue; host or cells: brain and heart membrane proteome
T1 sequence (Q8BLF1 1-408): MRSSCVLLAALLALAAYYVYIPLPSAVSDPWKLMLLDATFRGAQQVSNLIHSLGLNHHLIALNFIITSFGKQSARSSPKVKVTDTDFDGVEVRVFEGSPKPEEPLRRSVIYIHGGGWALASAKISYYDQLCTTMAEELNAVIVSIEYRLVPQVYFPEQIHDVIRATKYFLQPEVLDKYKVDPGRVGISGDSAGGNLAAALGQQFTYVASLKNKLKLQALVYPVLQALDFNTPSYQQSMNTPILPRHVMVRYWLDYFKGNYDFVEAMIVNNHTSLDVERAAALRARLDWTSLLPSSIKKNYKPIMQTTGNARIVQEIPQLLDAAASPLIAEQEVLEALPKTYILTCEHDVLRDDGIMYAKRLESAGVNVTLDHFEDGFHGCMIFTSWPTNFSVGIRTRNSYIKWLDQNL
Assay: Activity based protein profiling (proteome-wide selectivity screening, FP-Rh), KIAA1363
Format: biochemical
Conditions: Table 4
Source text: Enzyme targets such as FAAH, KIAA1363, and TGH are labeled at the left margin.

**Q.** `O=C(CCCCCCc1ccccc1)c1ncc(-c2ccccn2)o1` [compound 2, reference compound] was tested. Which IC50 did it give?
**A.** Its IC50 is over 100 µM.
